Test results: PubChem BioAssay AID328 (DTP/NCI, 2004)
The list does not hold the whole screen: it gathers tests that were run many times, whatever their T/C, doses with no T/C, and many T/C values between a quarter and a half above the control. Further doses and runs are listed elsewhere. T/C gives the treated animals as a percentage of the vehicle group. Some doses have a count of surviving animals in place of a T/C: the source holds a T/C of zero for them, seemingly a mark for toxic or unscored doses. Some doses without a T/C left all or most animals alive at the check, yet need not have been tolerated: survival well below the control is almost never listed, so the zero probably covers shortened survival too. Counts of survivors are from the toxicity check (mostly the fifth day) where no day follows; animals may have died later. Schedules are NCI's codes, taken here to give the interval after Q, in days (D) or hours (H), and the number of doses after X. Some structures stand for samples that the source files as different forms (salt, stereo form or complex); doses refer to the form tested. Some entries hold several experiments; the values are given in rising order. For survival time, this PubChem deposit counts one and a half times the control or more as active, and values a quarter to a half above the control carry no call in these data; other NCI protocols may use other cut-offs. Some T/C values are followed by the survivors on the day toxicity was checked, most often the fifth; without a count, all were alive then.

System: BDF1 mice, P388 leukemia ip, median survival T/C
Test: NCI In Vivo Anticancer Drug Screen. Data for tumor model P388 Leukemia (intraperitoneal) in B6D2F1 (BDF1) mice
Details: T/C endpoint: median survival time, higher T/C = longer survival
Summary of the method: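 In tumour-bearing mice, survival after compound treatment is set against the vehicle group and given as a quotient.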

[1] = dose: 100.0 mg/kg/injection, schedule: Q01DX009 (ip), vehicle: saline
[2] = dose: 100.0 mg/kg/injection, schedule: Q04DX003 (ip), vehicle: saline
[3] = dose: 200.0 mg/kg/injection, schedule: Q01DX009 (ip), vehicle: saline
[4] = dose: 400.0 mg/kg/injection, schedule: Q04DX003 (ip), vehicle: saline
[5] = dose: 200.0 mg/kg/injection, schedule: Q01DX009 (ip), vehicle: other
[6] = dose: 400.0 mg/kg/injection, schedule: Q01DX009 (ip), vehicle: other
[7] = dose: 200.0 mg/kg/injection, schedule: Q04DX003 (ip), vehicle: saline
[8] = dose: 400.0 mg/kg/injection, schedule: Q04DX003 (ip), vehicle: saline with Tween-80
[9] = dose: 6.25 mg/kg/injection, schedule: Q01DX009 (ip), vehicle: Klucel (hydroxypropylcellulose) (HPC)
[10] = dose: 200.0 mg/kg/injection, schedule: Q01DX009 (ip), vehicle: saline with Tween-80
[11] = dose: 50.0 mg/kg/injection, schedule: Q01DX009 (ip), vehicle: saline with Tween-80
[12] = dose: 25.0 mg/kg/injection, schedule: Q01DX009 (ip), vehicle: saline with Tween-80
[13] = dose: 200.0 mg/kg/injection, schedule: Q04DX002 (ip), vehicle: saline with Tween-80
[14] = dose: 400.0 mg/kg/injection, schedule: Q04DX002 (ip), vehicle: saline with Tween-80
[15] = dose: 100.0 mg/kg/injection, schedule: Q01DX009 (ip), vehicle: saline with Tween-80

In the case of `C=CCSc1nc(N)nc2c1ncn2C1CC(O)C(CO)O1` (centres undefined), the T/C [1] was 125 % of control [5 of 6 alive], the survivor count [2] was 6 of 6 and the survivor count [3] was 6 of 6. For the same molecule, the survivor count (dose: 400.0 mg/kg/injection, schedule: Q01DX009 (ip), vehicle: saline with Tween-80) was 5 of 6, the survivor count (dose: 400.0 mg/kg/injection, schedule: Q01DX009 (ip), vehicle: saline) was 5 of 6 and the T/C [4] was 131 % of control. For the same molecule, the T/C (dose: 600.0 mg/kg/injection, schedule: Q04DX003 (ip), vehicle: saline) was 140 % of control.

With `O=C1c2ccccc2C(=O)c2c(NCCSCCO)ccc(NCCSCCO)c21` the survivor count [5] was 6 of 6 and the survivor count [6] was 6 of 6.

With `Nc1ccn(CC(=O)c2ccco2)c(=O)n1` the survivor count [1] was 6 of 6, the survivor count [3] was 0 of 6 and the survivor count [7] was 2 of 6.

With `C/C(=C/c1cc2c(cc1Br)OCO2)[N+](=O)[O-]` the T/C [8] was 126 % of control [5 of 6 alive].

With `C[CH2][Pb]([CH2]C)([CH2]C)[O]C(=O)COC` the T/C (dose: 1.56 mg/kg/injection, schedule: Q01DX009 (ip), vehicle: Klucel (hydroxypropylcellulose) (HPC)) was 133 % of control, the T/C (dose: 3.13 mg/kg/injection, schedule: Q01DX009 (ip), vehicle: Klucel (hydroxypropylcellulose) (HPC)) was 126 % of control and the survivor count [9] was 6 of 6.

With `NC1(CO)COC(c2ccccc2)OC1` (centres undefined) the T/C [2] was 127 % of control, the survivor count (dose: 150.0 mg/kg/injection, schedule: Q01DX009 (ip), vehicle: saline) was 3 of 6 and the survivor count (dose: 150.0 mg/kg/injection, schedule: Q04DX003 (ip), vehicle: saline) was 3 of 6. For the same molecule, the survivor count [7] was 1 of 6 and 4 of 6.

`O=S1(=O)CCCO1` was tested, and the survivor count [10] was 4 of 6.

For `O=[N+]([O-])c1ccc([N+](=O)[O-])c(Cl)c1`, the survivor count (dose: 200.0 mg/kg/injection, schedule: Q04DX003 (ip), vehicle: Klucel (hydroxypropylcellulose) (HPC)) was 6 of 6, the survivor count (dose: 225.0 mg/kg/injection, schedule: Q01DX009 (ip), vehicle: Klucel (hydroxypropylcellulose) (HPC)) was 5 of 6 and the survivor count (dose: 335.0 mg/kg/injection, schedule: Q01DX009 (ip), vehicle: Klucel (hydroxypropylcellulose) (HPC)) was 5 of 6. For the same molecule, the survivor count (dose: 400.0 mg/kg/injection, schedule: Q04DX003 (ip), vehicle: Klucel (hydroxypropylcellulose) (HPC)) was 6 of 6.

For `CCCCCCCC(=O)N/N=C(\CO)[C@]1(O)Cc2c(O)c3c(c(O)c2[C@@H](OC2CC(N)C(O)C(C)O2)C1)C(=O)c1c(OC)cccc1C3=O` (some centres undefined), the T/C (dose: 1.56 mg/kg/injection, schedule: Q01DX009 (ip), vehicle: water) was 125 % of control, the T/C (dose: 25.0 mg/kg/injection, schedule: Q01DX009 (ip), vehicle: water) was 139 % of control [5 of 6 alive] and the survivor count (dose: 50.0 mg/kg/injection, schedule: Q01DX009 (ip), vehicle: water) was 6 of 6.

For `O=[N+]([O-])c1ccc2[nH]c3c(c2c1)CSCC3`, the survivor count [10] was 5 of 6.

For `COc1ccc(-c2cc(=O)c3cc(OC)c(OC)cc3o2)cc1OC`, the survivor count (dose: 7.5 mg/kg/injection, schedule: Q01DX009 (ip), vehicle: saline) was 6 of 6.

For `O=C(CCl)NCc1cnccn1`, the survivor count (dose: 300.0 mg/kg/injection, schedule: Q04DX003 (ip), vehicle: saline) was 1 of 6.

For `S=c1nc[nH]c2nc[nH]c12`, the survivor count (dose: 15.0 mg/kg/injection, schedule: Q01DX010 (ip), vehicle: saline) was 6 of 6, the T/C (dose: 40.0 mg/kg/injection, schedule: Q01DX009 (ip), vehicle: alkali diluted with saline) was 97, 104, 112, 113, 117 % of control and the T/C (dose: 43.2 mg/kg/injection, schedule: Q01DX009 (ip), vehicle: alkali diluted with saline) was 125 % of control. The T/C [11] was 127 % of control, the T/C (dose: 60.0 mg/kg/injection, schedule: Q01DX009 (ip), vehicle: alkali diluted with saline) was 108, 110, 113, 114, 126 % of control and the T/C (dose: 60.0 mg/kg/injection, schedule: Q01DX010 (ip), vehicle: saline) was 133 and 136 % of control. For the same molecule, the survivor count (dose: 120.0 mg/kg/injection, schedule: Q01DX010 (ip), vehicle: saline) was 6 of 6 and the survivor count (dose: 200.0 mg/kg/injection, schedule: Q01DX009 (ip), vehicle: alkali diluted with saline) was 2 of 8.

For `CC1N/C(=C/c2ccccc2)C(=O)O1` (centres undefined), the T/C [12] was 127 % of control and the survivor count [10] was 3 of 6.

With `C=C(C)C(=O)/C(=C/C(=O)O)OC` the survivor count (dose: 100.0 mg/kg/injection, schedule: Q01DX010 (ip), vehicle: saline) was 0 of 6.

`COC(=O)CC1CCN(C(=O)OCc2ccccc2)C(Cc2c[nH]c3ccccc23)C1=O` (centres undefined) was tested, and the T/C (dose: 6.0 mg/kg/injection, schedule: Q01DX009 (ip), vehicle: saline) was 126 % of control.

With `CC(=O)Nc1c(Cl)cc2c(c1Cl)Cc1cc([N+](=O)[O-])ccc1-2` the survivor count [8] was 6 of 6.

With `Cc1nc2[nH]c(=O)ccc2c(C)c1N` the survivor count [13] was 0 of 6 and the survivor count [14] was 0 of 6.

`CC1(C)O[C@@H]2C[C@H]3[C@@H]4CCC5=CC(=O)C=C[C@]5(C)[C@@]4(F)[C@@H](O)C[C@]3(C)[C@]2(C(=O)CO)O1` was tested, and the survivor count [15] was 6 of 6, the survivor count [10] was 4 of 6 and the survivor count [8] was 6 of 6.

In the case of `CC(=O)Oc1ccc(OC(C)=O)c2c1CC(C)=C(C)C2`, the T/C [4] was 126 % of control [5 of 6 alive].

In the case of `CN=C1N[N+]2=CCCCC2S1` (centres undefined), the T/C (dose: 90.0 mg/kg/injection, schedule: Q01DX009 (ip), vehicle: saline) was 149 % of control.

For `[NH-]C(CCC(N)=O)C(=O)O.[NH-]C(CCCN=C(N)N)C(=O)O.[Zn+2]` (centres undefined), the survivor count (dose: 200.0 mg/kg/injection, schedule: Q01DX005 (ip), vehicle: saline) was 1 of 5.

In the case of `C=COCC(C)C` (tested in a mixture with another compound), the survivor count (dose: 3.12 mg/kg/injection, schedule: Q01DX009 (ip), vehicle: Klucel (hydroxypropylcellulose) (HPC)) was 4 of 6, the survivor count [9] was 0 of 6 and the survivor count (dose: 35.0 mg/kg/injection, schedule: Q01DX009 (ip), vehicle: saline with Tween-80) was 3 of 6.

In the case of `CCC(CO)NC(=O)/C=C/c1cc(OC)ccc1OC` (centres undefined), the survivor count (dose: 800.0 mg/kg/injection, schedule: Q01DX009 (ip), vehicle: saline with Tween-80) was 6 of 6.

In the case of `BrCC1(CBr)CCCCC1`, the survivor count (dose: 100.0 mg/kg/injection, schedule: Q04DX002 (ip), vehicle: saline with Tween-80) was 5 of 6, the survivor count [13] was 1 of 6 and the survivor count [14] was 0 of 6.

For `O=C1c2ccccc2CCC1(Br)C(Br)c1ccccc1` (centres undefined), the T/C (dose: 200.0 mg/kg/injection, schedule: Q01DX001 (ip), vehicle: Klucel (hydroxypropylcellulose) (HPC)) was 133 % of control.

`C(=Nc1ccc(/C=C\c2ccnc3ccccc23)cc1)Nc1ccc(/C=C\c2ccnc3ccccc23)cc1` was tested, and the survivor count [11] was 5 of 6 and the survivor count [15] was 6 of 6.

With `C#CCn1cnc2c(Cl)ncnc21` the survivor count [5] was 4 of 6 and the survivor count [6] was 3 of 6.

`COC(=O)C1(C(=O)OC)N=C(C)OO1` was tested, and the T/C [12] was 149 % of control.

For `CC(=O)CC(C)(C)N`, the survivor count [1] was 3 of 6.

`Nc1nc(Cl)c(C=O)c(Cl)n1` was tested, and the T/C [15] was 148 % of control [5 of 6 alive] and the survivor count [10] was 5 of 6.

In the case of `N=C(N)c1ccc(C#Cc2ccc(C(=N)N)cc2)cc1`, the survivor count [11] was 0 of 6, the survivor count [15] was 0 of 6 and the survivor count [10] was 0 of 6.

In the case of `O=c1cccc2n1CC1CNC[C@H]2C1`, the survivor count (dose: 12.0 mg/kg/injection, schedule: Q01DX010 (ip), vehicle: saline) was 0 of 6.

With `CC(=O)OCCC/C(=C/c1cc2ccccc2c2ccccc12)[N+](=O)[O-]` the survivor count (dose: 400.0 mg/kg/injection, schedule: Q01DX009 (ip), vehicle: Klucel (hydroxypropylcellulose) (HPC)) was 2 of 6.

With `Cn1c(O)c(C=N)c(=O)n(C)c1=O` the survivor count [2] was 6 of 6.
